# The supplement of paper PMC8728848
# The list shows a part of the results.
# Key:
# Test in all cases: glycan array binding signal (z-score within array); higher = stronger binding
# Conditions in all cases: glycan notation: IUPAC condensed, linker removed; mutation: D224N
# [1] = molecular target: Gal3S4S(b1-4)GlcNAc
# How it was run: (§1)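 Columns mapping to the same glycan were averaged after glycan names were converted to IUPAC-condensed notation. The data come from 3228 arrays in the Consortium for Functional Glycomics database, limited to those with an available protein sequence. Binding is reported as a within-array Z-score averaged across arrays of one protein sequence and across linkers.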
# [2] = molecular target: Gal3S6S(b1-4)GlcNAc
# How it was run: as §1
# [3] = molecular target: Gal3S6S(b1-4)GlcNAc6S
# How it was run: as §1
# [4] = molecular target: Gal4S(b1-4)GlcNAc
# How it was run: as §1
# [5] = molecular target: Gal4S6S(b1-4)GlcNAc
# How it was run: as §1
# [6] = molecular target: Gal6P(b1-4)GlcNAc
# How it was run: as §1
# [7] = molecular target: Gal6S(b1-3)GlcNAc
# How it was run: as §1
# [8] = molecular target: Gal6S(b1-3)GlcNAc6S
# How it was run: as §1
# [9] = molecular target: Gal6S(b1-4)Glc
# How it was run: as §1
# [10] = molecular target: Gal6S(b1-4)Glc6S
# How it was run: as §1
# [11] = molecular target: Gal6S(b1-4)GlcNAc
# How it was run: as §1
# [12] = molecular target: Gal6S(b1-4)GlcNAc6S
# How it was run: as §1
# [13] = molecular target: GalNAc(a1-3)Gal
# How it was run: as §1
# [14] = molecular target: GalNAc(a1-3)GalNAc
# How it was run: as §1
# [15] = molecular target: GalNAc(a1-3)GalNAc(b1-3)Gal(a1-4)Gal(b1-4)Glc
# How it was run: as §1
# [16] = molecular target: GalNAc(a1-3)GalNAc(b1-3)Gal(a1-4)Gal(b1-4)GlcNAc
# How it was run: as §1
# [17] = molecular target: GalNAc(b1-3)Gal
# How it was run: as §1
# [18] = molecular target: GalNAc(b1-3)Gal(a1-4)Gal(b1-4)GlcNAc
# How it was run: as §1
# [19] = molecular target: GalNAc(b1-3)Gal(a1-4)Gal(b1-4)GlcNAc(b1-3)Gal(b1-4)Glc
# How it was run: as §1
# [20] = molecular target: GalNAc(b1-3)Gal(a1-6)Gal(b1-4)Glc
# How it was run: as §1
# [21] = molecular target: GalNAc(b1-3)GalNAc
# How it was run: as §1
# [22] = molecular target: GalNAc(b1-3)GlcNAc
# How it was run: as §1
# [23] = molecular target: GalNAc(b1-4)Gal(b1-4)Glc
# How it was run: as §1
# [24] = molecular target: GalNAc(b1-4)GlcNAc
# How it was run: as §1
# [25] = molecular target: GalNAc(b1-4)GlcNAc(b1-2)Man
# How it was run: as §1
# [26] = molecular target: GalNAc(b1-4)GlcNAc(b1-2)Man(a1-3)[GalNAc(b1-4)GlcNAc(b1-2)Man(a1-6)]Man(b1-4)GlcNAc(b1-4)GlcNAc
# How it was run: as §1
# [27] = molecular target: GalNAc(b1-4)GlcNAc(b1-3)GalNAc(b1-4)GlcNAc
# How it was run: as §1
# [28] = molecular target: GalNAc(b1-4)GlcNAc6S
# How it was run: as §1
# [29] = molecular target: GalNAc(b1-6)GalNAc
# How it was run: as §1
# [30] = molecular target: GalNAc3S(b1-4)GlcNAc
# How it was run: as §1
# [31] = molecular target: GalNAc3S(b1-4)GlcNAc3S
# How it was run: as §1
# [32] = molecular target: GalNAc3S(b1-4)[Fuc(a1-3)]GlcNAc
# How it was run: as §1
# [33] = molecular target: GalNAc4S6S(b1-4)GlcNAc
# How it was run: as §1
# [34] = molecular target: GalNAc6S(b1-4)GlcNAc
# How it was run: as §1
# [35] = molecular target: Glc(a1-4)Glc
# How it was run: as §1
# [36] = molecular target: Glc(a1-4)Glc(a1-4)Glc(a1-4)Glc
# How it was run: as §1
# [37] = molecular target: Glc(a1-6)Glc(a1-6)Glc
# How it was run: as §1
# [38] = molecular target: Glc(a1-6)Glc(a1-6)Glc(a1-6)Glc
# How it was run: as §1
binder,measurement,setting,value
a L Fucosidase (Thermotoga maritima) (protein) MASMKPRYKPDWESLREHTVPKWFDKAKFGIFIHWGIYSVPGWATPTGELGKVPMDAWFFQNPYAEWYENSLRIKESPTWEYHVKTYGENFEYEKFADLFTAEKWDPQEWADLFKKAGAKYVIPTTKHHDGFCLWGTKYTDFNSVKRGPKRDLVGDLAKAVREAGLRFGVYYSGGLDWRFTTEPIRYPEDLSYIRPNTYEYADYAYKQVMELVDLYLPDVLWNNMGWPEKGKEDLKYLFAYYYNKHPEGSVNDRWGVPHWDFKTAEYHVNYPGDLPGYKWEFTRGIGLSFGYNRNEGPEHMLSVEQLVYTLVDVVSKGGNLLLNVGPKGDGTIPDLQKERLLGLGEWLRKYGDAIYGTSVWERCCAKTEDGTEIRFTRKCNRIFVIFLGIPTGEKIVIEDLNLSAGTVRHFLTGERLSFKNVGKNLEITVPKKLLETDSITLVLEAVEE,glycan array binding signal (z-score),[1],-1.04
same,glycan array binding signal (z-score),[2],1.33
same,glycan array binding signal (z-score),[3],0.962
same,glycan array binding signal (z-score),[4],-0.611
same,glycan array binding signal (z-score),[5],-0.705
same,glycan array binding signal (z-score),[6],-0.647
same,glycan array binding signal (z-score),[7],0.321
same,glycan array binding signal (z-score),[8],-0.65
same,glycan array binding signal (z-score),[9],0.163
same,glycan array binding signal (z-score),[10],-0.426
same,glycan array binding signal (z-score),[11],-0.483
same,glycan array binding signal (z-score),[12],-0.361
same,glycan array binding signal (z-score),[13],-0.313
same,glycan array binding signal (z-score),[14],-0.627
same,glycan array binding signal (z-score),[15],-0.326
same,glycan array binding signal (z-score),[16],-0.305
same,glycan array binding signal (z-score),[17],-0.477
same,glycan array binding signal (z-score),[18],-0.203
same,glycan array binding signal (z-score),[19],0.065
same,glycan array binding signal (z-score),[20],-1.36
same,glycan array binding signal (z-score),[21],0.032
same,glycan array binding signal (z-score),[22],0.486
same,glycan array binding signal (z-score),[23],0.47
same,glycan array binding signal (z-score),[24],0.218
same,glycan array binding signal (z-score),[25],-0.3
same,glycan array binding signal (z-score),[26],0.132
same,glycan array binding signal (z-score),[27],0.076
same,glycan array binding signal (z-score),[28],-0.397
same,glycan array binding signal (z-score),[29],-0.458
same,glycan array binding signal (z-score),[30],1.27
same,glycan array binding signal (z-score),[31],0.136
same,glycan array binding signal (z-score),[32],-0.654
same,glycan array binding signal (z-score),[33],0.986
same,glycan array binding signal (z-score),[34],-0.231
same,glycan array binding signal (z-score),[35],-0.171
same,glycan array binding signal (z-score),[36],2.84
same,glycan array binding signal (z-score),[37],-0.155
same,glycan array binding signal (z-score),[38],0.142

# A section of the results above, for reference:
binder,measurement,setting,value
a L Fucosidase (Thermotoga maritima) (protein) MASMKPRYKPDWESLREHTVPKWFDKAKFGIFIHWGIYSVPGWATPTGELGKVPMDAWFFQNPYAEWYENSLRIKESPTWEYHVKTYGENFEYEKFADLFTAEKWDPQEWADLFKKAGAKYVIPTTKHHDGFCLWGTKYTDFNSVKRGPKRDLVGDLAKAVREAGLRFGVYYSGGLDWRFTTEPIRYPEDLSYIRPNTYEYADYAYKQVMELVDLYLPDVLWNNMGWPEKGKEDLKYLFAYYYNKHPEGSVNDRWGVPHWDFKTAEYHVNYPGDLPGYKWEFTRGIGLSFGYNRNEGPEHMLSVEQLVYTLVDVVSKGGNLLLNVGPKGDGTIPDLQKERLLGLGEWLRKYGDAIYGTSVWERCCAKTEDGTEIRFTRKCNRIFVIFLGIPTGEKIVIEDLNLSAGTVRHFLTGERLSFKNVGKNLEITVPKKLLETDSITLVLEAVEE,glycan array binding signal (z-score),[8],-0.65
same,glycan array binding signal (z-score),[9],0.163
same,glycan array binding signal (z-score),[10],-0.426
